From patent US7582068B2, “Occlusion resistant hydrocephalic shunt” (Medtronic, Inc., priority 2004, dated 2009)
At least one structure is not confirmed: it was looked up by name or label, or the drawing left a doubt.

Columns and labels:
Astrocytoma cell culture = experiment: Astrocytoma cell growth in media pre-incubated with RAPA-loaded shunts; format: cell-based; conditions: media exposed 4 hours to sterilized shunt (1 mg/ml RAPA impregnation plus 0.1 wt % RAPA plug); compared to fresh media
[1] = In-vitro drug release from drug-loaded catheters into PBS buffer (UV-VIS); format: physicochemical

| SMILES | Inhibition of the cell growth (Astrocytoma cell culture) | Change of dexamethasone release rate after five step dipping ([1]; dip coating repeated up to five times, 5 to 30 min drying in between) | Change of initial burst of released dexamethasone with barrier layer ([1]; dip-coated samples additionally dipped into pure RTV silicone solution in THF (11 wt %)) |
| --- | --- | --- | --- |
| CO[C@H]1C[C@@H]2CC[C@@H](C)[C@@](O)(O2)C(=O)C(=O)N2CCCC[C@H]2C(=O)O[C@H]([C@H](C)C[C@@H]2CC[C@@H](O)[C@H](OC)C2)CC(=O)[C@H](C)/C=C(\C)[C@@H](O)[C@@H](OC)C(=O)[C@H](C)C[C@H](C)/C=C/C=C/C=C/1C [RAPA, Rapamycin] | two fold inhibition | – | – |
| C[C@@H]1C[C@H]2[C@@H]3CCC4=CC(=O)C=C[C@]4(C)[C@@]3(F)[C@@H](O)C[C@]2(C)[C@@]1(O)C(=O)CO [dexamethasone, Dexamethasone free base] | – | increased less than three times | four fold decrease |
